Here are results for one molecule from paper PMC9622807.

Results are given in words; binding and its absence hold for the method and conditions named. Binding seen in cells or lysates may run through a third protein. These calls come from enrichment with a bait or labelling near it, and not all partners need be listed.

For the experiment, the target named is circBNC2-translated protein (ctBNC2) (human (endogenous in HK2)). Put plainly: affinity purification with mass spectrometry; HK2 lysates immunoprecipitated with anti-ctBNC2 or anti-BNC2, normal IgG as negative control; silver-stained gel bands (25–35 and 55–70 kDa) analysed by LC-MS; three independent experiments.

B1: CCT2 (protein, UniProt P78371 1-535)
chain: MASLSLAPVNIFKAGADEERAETARLTSFIGAIAIGDLVKSTLGPKGMDKILLSSGRDASLMVTNDGATILKNIGVDNPAAKVLVDMSRVQDDEVGDGTTSVTVLAAELLREAESLIAKKIHPQTIIAGWREATKAAREALLSSAVDHGSDEVKFRQDLMNIAGTTLSSKLLTHHKDHFTKLAVEAVLRLKGSGNLEAIHIIKKLGGSLADSYLDEGFLLDKKIGVNQPKRIENAKILIANTGMDTDKIKIFGSRVRVDSTAKVAEIEHAEKEKMKEKVERILKHGINCFINRQLIYNYPEQLFGAAGVMAIEHADFAGVERLALVTGGEIASTFDHPELVKLGSCKLIEEVMIGEDKLIHFSGVALGEACTIVLRGATQQILDEAERSLHDALCVLAQTVKDSRTVYGGGCSEMLMAHAVTQLANRTPGKEAVAMESYAKALRMLPTIIADNAGYDSADLVAQLRAAHSEGNTTAGLDMREGTIGDMAILGITESFQVKRQVLLSAAEAAEVILRVDNIIKAAPRKRVPDHHPC
B1: the binding result is listed as “binds”.
